Test results taken from article PMC13015889.
No constants are given. Whether binding was seen depends on the method and setting. In cells and extracts the contact can be indirect. Here binding means that the protein was enriched with, or labelled near, the bait; the list need not be complete. Tags and fused reporters may be left off the sequences shown.

Protein sequences, listed by entry. Tags and fused reporters are not part of them. Residues count along the entry.
UniProt Q9LX66, residues 25-830: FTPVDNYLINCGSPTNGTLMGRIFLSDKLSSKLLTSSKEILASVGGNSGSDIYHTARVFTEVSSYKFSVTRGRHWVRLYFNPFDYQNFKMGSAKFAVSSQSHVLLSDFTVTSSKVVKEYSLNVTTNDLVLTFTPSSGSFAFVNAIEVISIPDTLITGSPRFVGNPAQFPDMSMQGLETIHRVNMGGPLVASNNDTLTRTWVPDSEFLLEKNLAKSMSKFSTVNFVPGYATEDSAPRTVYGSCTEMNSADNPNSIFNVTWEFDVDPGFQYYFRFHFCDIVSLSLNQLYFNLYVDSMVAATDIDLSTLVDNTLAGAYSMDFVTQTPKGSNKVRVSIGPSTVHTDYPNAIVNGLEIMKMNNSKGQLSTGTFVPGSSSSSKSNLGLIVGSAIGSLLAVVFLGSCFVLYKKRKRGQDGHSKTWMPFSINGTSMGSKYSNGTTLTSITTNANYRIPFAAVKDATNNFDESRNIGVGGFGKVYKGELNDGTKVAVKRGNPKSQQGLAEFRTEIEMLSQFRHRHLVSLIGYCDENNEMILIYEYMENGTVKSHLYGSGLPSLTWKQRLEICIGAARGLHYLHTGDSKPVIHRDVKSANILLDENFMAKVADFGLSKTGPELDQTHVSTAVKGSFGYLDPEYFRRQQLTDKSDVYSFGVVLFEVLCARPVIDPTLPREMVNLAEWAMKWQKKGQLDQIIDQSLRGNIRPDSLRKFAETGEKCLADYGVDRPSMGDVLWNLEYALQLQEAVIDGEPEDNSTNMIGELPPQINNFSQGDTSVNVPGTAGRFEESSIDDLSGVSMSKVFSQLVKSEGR

T1: ERECTA-HA-TbID fusion protein (Arabidopsis thaliana) (UniProt Q42371)
T1 sequence: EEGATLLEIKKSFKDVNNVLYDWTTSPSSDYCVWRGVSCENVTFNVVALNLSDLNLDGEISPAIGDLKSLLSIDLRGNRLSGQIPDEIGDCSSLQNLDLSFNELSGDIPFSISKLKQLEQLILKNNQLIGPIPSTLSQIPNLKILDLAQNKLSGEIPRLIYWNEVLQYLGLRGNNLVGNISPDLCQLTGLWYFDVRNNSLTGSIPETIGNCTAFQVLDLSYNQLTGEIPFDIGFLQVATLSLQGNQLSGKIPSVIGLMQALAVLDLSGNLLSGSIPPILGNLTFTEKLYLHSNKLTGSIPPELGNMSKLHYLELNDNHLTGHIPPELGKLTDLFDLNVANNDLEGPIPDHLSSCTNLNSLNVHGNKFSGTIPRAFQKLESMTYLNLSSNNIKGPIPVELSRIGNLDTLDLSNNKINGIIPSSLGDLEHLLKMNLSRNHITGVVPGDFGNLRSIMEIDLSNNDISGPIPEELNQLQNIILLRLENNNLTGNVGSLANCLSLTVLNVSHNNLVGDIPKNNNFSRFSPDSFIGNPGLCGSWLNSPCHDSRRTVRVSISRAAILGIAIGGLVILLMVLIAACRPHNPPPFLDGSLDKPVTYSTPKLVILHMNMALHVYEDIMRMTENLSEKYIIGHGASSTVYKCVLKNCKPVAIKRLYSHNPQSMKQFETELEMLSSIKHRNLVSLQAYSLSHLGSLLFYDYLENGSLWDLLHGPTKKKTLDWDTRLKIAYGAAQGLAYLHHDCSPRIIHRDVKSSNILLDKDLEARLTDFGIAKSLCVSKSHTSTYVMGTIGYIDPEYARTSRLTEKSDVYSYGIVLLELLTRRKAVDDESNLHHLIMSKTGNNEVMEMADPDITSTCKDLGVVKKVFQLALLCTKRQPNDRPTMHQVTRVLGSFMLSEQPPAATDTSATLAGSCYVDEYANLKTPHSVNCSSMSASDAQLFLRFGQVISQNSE

B1: TOO MANY MOUTHS (TMM) (receptor, UniProt Q9SSD1 24-496)
chain: FTVITSDSTAPSALIDGPQTGFTMTNDGARTEPDEQDAVYDIMRATGNDWAAAIPDVCRGRWHGIECMPDQDNVYHVVSLSFGALSDDTAFPTCDPQRSYVSESLTRLKHLKALFFYRCLGRAPQRIPAFLGRLGSSLQTLVLRENGFLGPIPDELGNLTNLKVLDLHKNHLNGSIPLSFNRFSGLRSLDLSGNRLTGSIPGFVLPALSVLDLNQNLLTGPVPPTLTSCGSLIKIDLSRNRVTGPIPESINRLNQLVLLDLSYNRLSGPFPSSLQGLNSLQALMLKGNTKFSTTIPENAFKGLKNLMILVLSNTNIQGSIPKSLTRLNSLRVLHLEGNNLTGEIPLEFRDVKHLSELRLNDNSLTGPVPFERDTVWRMRRKLRLYNNAGLCVNRDSDLDDAFGSKSGSTVRLCDAETSRPAPSGTVQHLSREEDGALPDGATDVSSTSKSLGFSYLSAFFLVFPNFIFMLISS
B2: BRI1-ASSOCIATED KINASE1/SOMATIC EMBRYOGENESIS RECEPTOR KINASE3 (BAK1/SERK3) (receptor, UniProt Q94F62 26-615)
chain: NAEGDALSALKNSLADPNKVLQSWDATLVTPCTWFHVTCNSDNSVTRVDLGNANLSGQLVMQLGQLPNLQYLELYSNNITGTIPEQLGNLTELVSLDLYLNNLSGPIPSTLGRLKKLRFLRLNNNSLSGEIPRSLTAVLTLQVLDLSNNPLTGDIPVNGSFSLFTPISFANTKLTPLPASPPPPISPTPPSPAGSNRITGAIAGGVAAGAALLFAVPAIALAWWRRKKPQDHFFDVPAEEDPEVHLGQLKRFSLRELQVASDNFSNKNILGRGGFGKVYKGRLADGTLVAVKRLKEERTQGGELQFQTEVEMISMAVHRNLLRLRGFCMTPTERLLVYPYMANGSVASCLRERPESQPPLDWPKRQRIALGSARGLAYLHDHCDPKIIHRDVKAANILLDEEFEAVVGDFGLAKLMDYKDTHVTTAVRGTIGHIAPEYLSTGKSSEKTDVFGYGVMLLELITGQRAFDLARLANDDDVMLLDWVKGLLKEKKLEALVDVDLQGNYKDEEVEQLIQVALLCTQSSPMERPKMSEVVRMLEGDGLAERWEEWQKEEMFRQDFNYPTHHPAVSGWIIGDSTSQIENEYPSGPR
B3: YODA (MAPKKK4) (enzyme, UniProt Q9CAD5 1-883)
chain: MPWWSKSKDEKKKTNKESIIDAFNRKLGFASEDRSSGRSRKSRRRRDEIVSERGAISRLPSRSPSPSTRVSRCQSFAERSPAVPLPRPIVRPHVTSTDSGMNGSQRPGLDANLKPSWLPLPKPHGATSIPDNTGAEPDFATASVSSGSSVGDIPSDSLLSPLASDCENGNRTPVNISSRDQSMHSNKNSAEMFKPVPNKNRILSASPRRRPLGTHVKNLQIPQRDLVLCSAPDSLLSSPSRSPMRSFIPDQVSNHGLLISKPYSDVSLLGSGQCSSPGSGYNSGNNSIGGDMATQLFWPQSRCSPECSPVPSPRMTSPGPSSRIQSGAVTPLHPRAGGSTTGSPTRRLDDNRQQSHRLPLPPLLISNTCPFSPTYSAATSPSVPRSPARAEATVSPGSRWKKGRLLGMGSFGHVYLGFNSESGEMCAMKEVTLCSDDPKSRESAQQLGQEISVLSRLRHQNIVQYYGSETVDDKLYIYLEYVSGGSIYKLLQEYGQFGENAIRNYTQQILSGLAYLHAKNTVHRDIKGANILVDPHGRVKVADFGMAKHITAQSGPLSFKGSPYWMAPEVIKNSNGSNLAVDIWSLGCTVLEMATTKPPWSQYEGVPAMFKIGNSKELPDIPDHLSEEGKDFVRKCLQRNPANRPTAAQLLDHAFVRNVMPMERPIVSGEPAEAMNVASSTMRSLDIGHARSLPCLDSEDATNYQQKGLKHGSGFSISQSPRNMSCPISPVGSPIFHSHSPHISGRRSPSPISSPHALSGSSTPLTGCGGAIPFHHQRQTTVNFLHEGIGSSRSPGSGGNFYTNSFFQEPSRQQDRSRSSPRTPPHVFWDNNGSIQPGYNWNKDNQPVLSDHVSQQLLSEHLKLKSLDLRPGFSTPGSTNRGP
B4: auxin efflux transporter PIN3 (protein, UniProt Q9S7Z8 1-640)
chain: MISWHDLYTVLTAVIPLYVAMILAYGSVRWWKIFSPDQCSGINRFVAIFAVPLLSFHFISTNNPYAMNLRFIAADTLQKIIMLSLLVLWANFTRSGSLEWSITIFSLSTLPNTLVMGIPLLIAMYGEYSGSLMVQIVVLQCIIWYTLLLFLFEFRGAKMLIMEQFPETAASIVSFKVESDVVSLDGHDFLETDAEIGDDGKLHVTVRKSNASRRSFCGPNMTPRPSNLTGAEIYSLSTTPRGSNFNHSDFYNMMGFPGGRLSNFGPADMYSVQSSRGPTPRPSNFEENCAMASSPRFGYYPGGGAGSYPAPNPEFSSTTTSTANKSVNKNPKDVNTNQQTTLPTGGKSNSHDAKELHMFVWSSNGSPVSDRAGLNVFGGAPDNDQGGRSDQGAKEIRMLVPDQSHNGETKAVAHPASGDFGGEQQFSFAGKEEEAERPKDAENGLNKLAPNSTAALQSKTGLGGAEASQRKNMPPASVMTRLILIMVWRKLIRNPNTYSSLIGLIWALVAFRWHVAMPKIIQQSISILSDAGLGMAMFSLGLFMALQPKLIACGNSVATFAMAVRFLTGPAVMAVAAIAIGLRGDLLRVAIVQAALPQGIVPFVFAKEYNVHPAILSTGVIFGMLIALPITLVYYILLGL
B5: auxin efflux transporter PIN7 (protein, UniProt Q940Y5 1-619)
chain: MITWHDLYTVLTAVIPLYVAMILAYGSVRWWKIFSPDQCSGINRFVAIFAVPLLSFHFISSNNPYAMNLRFIAADTLQKLIMLTLLIIWANFTRSGSLEWSITIFSLSTLPNTLVMGIPLLIAMYGEYSGSLMVQIVVLQCIIWYTLLLFLFEYRGAKILIMEQFPETGASIVSFKVESDVVSLDGHDFLETDAQIGDDGKLHVTVRKSNASRRSFYGGGGTNMTPRPSNLTGAEIYSLNTTPRGSNFNHSDFYSMMGFPGGRLSNFGPADMYSVQSSRGPTPRPSNFEESCAMASSPRFGYYPGGAPGSYPAPNPEFSTGNKTGSKAPKENHHHVGKSNSNDAKELHMFVWGSNGSPVSDRAGLQVDNGANEQVGKSDQGGAKEIRMLISDHTQNGENKAGPMNGDYGGEEESERVKEVPNGLHKLRCNSTAELNPKEAIETGETVPVKHMPPASVMTRLILIMVWRKLIRNPNTYSSLIGLIWALVAFRWDVAMPKIIQQSISILSDAGLGMAMFSLGLFMALQPKLIACGNSTATFAMAVRFFTGPAVMAVAAMAIGLRGDLLRVAIVQAALPQGIVPFVFAKEYNVHPAILSTGVIFGMLIALPITLVYYILLGL

Assays:
[1] = target: T1, ERECTA-HA-TbID fusion protein (Arabidopsis thaliana); assay: proximity labelling; TbID-PL: ERECTA-HA-TbID seedlings, 50 μM biotin 1 hour at room temperature; biotinylated proteins on streptavidin magnetic beads, LC-MS; ERECTA-HA-TbID vs er-105
[2] = target: T1, ERECTA-HA-TbID fusion protein (Arabidopsis thaliana); assay: proximity labelling; ERECTA membrane TbID-PL: microsomal fractionation, microsomal versus cytosolic fractions
[3] = target: T1, ERECTA-HA-TbID fusion protein (Arabidopsis thaliana); assay: proximity labelling; optimized TbID-PL: ERECTA-HA-TbID seedlings with biotin (1 hour) compared to mock treated control (without biotin, 1 hour)
[4] = target: T1, ERECTA-HA-TbID fusion protein (Arabidopsis thaliana); assay: affinity purification with mass spectrometry; ET-AP: extract of 5-day-old ERECTApro::ERECTA-HA-TbID er-105 seedlings on anti-HA magnetic beads, 4°C 18 hours, lysis buffer with 150 mM NaCl and 1% Triton X-100; enrichment against control; three biological replicates
[5] = target: T1, ERECTA-HA-TbID fusion protein (Arabidopsis thaliana); assay: proximity labelling; optimized TbID-PL: ERECTA-HA-TbID seedlings with biotin (1 hour) compared to mock treated control (without biotin, 1 hour); remark: listed apart in the source
[6] = target: T1, ERECTA-HA-TbID fusion protein (Arabidopsis thaliana); assay: proximity labelling; TbID-PL: ERECTA-HA-TbID seedlings, 50 μM biotin 1 hour at room temperature; biotinylated proteins on streptavidin magnetic beads, LC-MS; ERECTA-HA-TbID vs er-105; remark: listed apart in the source

binding [1] | binding [2] | binding [3] | also measured | Molecule
binds |  |  |  | PICALM3 (endogenous)
binds | binds | binds |  | PICALM4B (endogenous)
binds | binds | binds |  | HERK1 (from UniProt Q9LX66 25-830) (receptor)
binds | binds | binds |  | PICALM4A (endogenous)
binds | binds | binds |  | LIK1 (receptor)
 | binds |  |  | BRASSINOSTEROID-… KINASE 1 (BSK1) (from UniProt Q944A7 1-512) (enzyme)
 |  |  | binding [4]: binds | B1
 |  |  | binding [5]: binds | B2
 |  |  | binding [5]: binds | B3
 |  |  | binding [4]: binds; binding [6]: binds | B4
 |  |  | binding [4]: binds; binding [6]: binds | B5
